Values of other authors in patent publication US6829540B1, “Drug discovery using multiple membrane mimetic affinities” (priority 1997, dated 2004).
Like-named read-outs stand apart in the source and are kept apart here.

Settings: cited from earlier work

## CN1[C@@H]2C[C@@H](OC(=O)[C@H](CO)c3ccccc3)C[C@H]1[C@@H]1O[C@@H]12 [scopolamine]
Table 6, low oral absorption training set
  Oral Absorption (%): 27%
Table 9, compounds with low oral absorption
  Oral Absorption (%): 27%
